PMC3197679
Where two headings read alike, the source gives them in different places. Results are given in words; binding and its absence hold for the method and conditions named. In cells and extracts the contact can be indirect. Some binding calls cover weakened binding; strength is not graded here.

Sequences of proteins named here, by UniProt entry; tags and fusion partners are left off.
UniProt Q13614: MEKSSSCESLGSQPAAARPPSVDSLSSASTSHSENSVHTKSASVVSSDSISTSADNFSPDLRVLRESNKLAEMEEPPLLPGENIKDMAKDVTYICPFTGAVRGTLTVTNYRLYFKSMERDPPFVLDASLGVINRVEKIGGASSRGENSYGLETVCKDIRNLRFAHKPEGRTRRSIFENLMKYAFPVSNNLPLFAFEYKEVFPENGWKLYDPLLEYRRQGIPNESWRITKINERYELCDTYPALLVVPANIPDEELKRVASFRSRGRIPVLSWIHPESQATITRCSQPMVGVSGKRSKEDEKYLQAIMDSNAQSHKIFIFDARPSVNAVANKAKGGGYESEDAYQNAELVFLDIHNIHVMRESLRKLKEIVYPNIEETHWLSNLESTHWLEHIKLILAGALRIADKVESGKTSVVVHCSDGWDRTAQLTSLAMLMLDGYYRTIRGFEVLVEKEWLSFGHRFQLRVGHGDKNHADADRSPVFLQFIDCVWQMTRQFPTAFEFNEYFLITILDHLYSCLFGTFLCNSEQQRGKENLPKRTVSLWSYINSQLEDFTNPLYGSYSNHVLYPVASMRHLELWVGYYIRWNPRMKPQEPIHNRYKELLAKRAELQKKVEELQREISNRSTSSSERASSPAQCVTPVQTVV
UniProt Q62696: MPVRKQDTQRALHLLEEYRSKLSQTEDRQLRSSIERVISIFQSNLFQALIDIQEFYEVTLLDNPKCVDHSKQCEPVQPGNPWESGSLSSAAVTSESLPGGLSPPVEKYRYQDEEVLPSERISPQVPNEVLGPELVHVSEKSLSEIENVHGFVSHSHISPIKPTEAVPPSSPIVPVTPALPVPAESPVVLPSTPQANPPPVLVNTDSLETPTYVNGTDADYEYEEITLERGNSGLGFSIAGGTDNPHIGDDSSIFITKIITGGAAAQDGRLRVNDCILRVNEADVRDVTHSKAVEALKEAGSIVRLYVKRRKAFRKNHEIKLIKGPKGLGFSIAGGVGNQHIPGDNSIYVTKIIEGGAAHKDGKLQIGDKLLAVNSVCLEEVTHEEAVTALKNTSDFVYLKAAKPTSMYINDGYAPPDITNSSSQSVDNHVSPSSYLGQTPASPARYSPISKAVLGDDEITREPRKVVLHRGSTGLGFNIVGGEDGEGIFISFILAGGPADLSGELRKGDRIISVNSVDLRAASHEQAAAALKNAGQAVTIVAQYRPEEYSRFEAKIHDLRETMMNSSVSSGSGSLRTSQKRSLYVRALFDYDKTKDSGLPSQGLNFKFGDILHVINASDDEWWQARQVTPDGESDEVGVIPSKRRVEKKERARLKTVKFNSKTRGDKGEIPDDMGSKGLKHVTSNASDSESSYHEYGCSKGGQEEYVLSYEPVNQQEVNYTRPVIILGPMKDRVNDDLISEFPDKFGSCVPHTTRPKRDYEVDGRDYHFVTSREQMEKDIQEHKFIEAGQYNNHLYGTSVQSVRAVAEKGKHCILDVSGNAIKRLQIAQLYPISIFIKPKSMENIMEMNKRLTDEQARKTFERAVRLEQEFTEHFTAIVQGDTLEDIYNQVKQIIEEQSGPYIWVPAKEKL

B1: Fig4 (mouse, from brain lysate) (enzyme, UniProt Q91WF7 1-907)
chain: MPTAAAPIISSVQKLVLYETRARYFLVGSNHAETKYRVLKIDRTEPKDLVVIDDRHVYTQQEVRELLGRLDLGNRTKMSQKGSSGLFRAVSAFGVVGFVRFLEGYYIVLITKRRKMADIGGHAIYKIEDTSMIYIPNDSVRISHPDEARYLRIFQNVDLSSNFYFSYSYDLSHSLQYNLTVLRMPLEMLKSETSKACQESFDIFEDEGLITQGGSGVFGISSEPYMKYVWNGELLDIIKNTVHRDWLLYIIHGFCGQSKLLIYGRPVYVTLIARRSSRFAGTRFLKRGANCEGDVANEVETEQILCDASVMSFTAGSYSSYVQVRGSVPLFWSQDISTMMPKPPITLDQADPFAHVAALHFDQMLQRFGSPIIILNLVKEREKRKHERILSEELVAAVTYLNQFLPPEHTIVYIPWDMAKYTKSKLCNVLDRLNVIAESVVKKTGFFVNRPDSYCSILRPDEKWNELGGHVIPTGRLQTGILRTNCVDCLDRTNTAQFMVGKCALAYQLYSLGLIDKPNLQFDTDAVRLFEELYEDHGDTLSLQYGGSQLVHRVKTYRKIAPWTQHSKDIMQTLSRYYSNAFSDADRQDSINLFLGVFHPTEGKPHLWELPTDFYLHHKNTMSLLPPRRSYTYWWTPEVVKHLPLPYDEVICAANLKKLMVKKFHRWEEEIDIHNEFFRPYELSSFDDTFCLAMTSSARDFMPKTVGIDPSPFTVRKPDETGKSVLGNKNTREEAVLQRKTAASAPPPPSEEAVSSSSEDDSGTDREDEGSISQRSTPVKMTDTGDSAKATENVVQPMKEVYGVSLSSSLSEEDHSIYARFVQLGQSQHKQDRGNQQLCSRCSDGVIKLTPISAFSQDNIYEVQPPRVDRKSTEIFQAHIQASQGIMQPLGKEDTAMYREYIRNRYL

Experiments:
[1] = molecular target: GST-MTMR2 (Myotubularin-related 2) (not stated (human or mouse cDNA cloned)) (UniProt Q13614); test: pull-down; GST fusion protein or GST immobilised on glutathione-Sepharose beads, incubated 4 h at 4°C with lysates of mouse brain or isolated rat Schwann cells (1% NP-40, 50 mM Tris pH 7.4, 10% glycerol, 100 mM NaCl, 10 mM NaF, 1 mM Na-vanadate); three washes with 0.5% NP-40; immunoblotting; only the target purified
[2] = molecular target: GST-MTMR2 (Myotubularin-related 2) (not stated (human or mouse cDNA cloned)) (UniProt Q13614); test: as above; remark: listed apart in the source

Molecule	binding [1]	binding [2]
Dlg1 (rat, from isolated Schwann cell lysate) (from UniProt Q62696 1-911)	binds	
B1		no binding
